Structures were worked out from names or drawings and are uncertain.
Key:
A431 = experiment: CellTiter-Glo cell proliferation inhibition assay; details: read-out: Antiproliferative activity (IC50 (nM)) A431; A431 cells; 72 hours; CTG
Ba/F3 (EGFR-L858R/C797S) = experiment: CellTiter-Glo cell proliferation inhibition assay; details: read-out: Antiproliferative activity (IC50 (nM)) Ba/F3 EGFR LR/CS; Ba/F3 (EGFR-L858R/C797S) cells; 72 hours; CTG
[1] = tested on: Ba/F3 (EGFR-L858R/T790M/C797S); experiment: CellTiter-Glo cell proliferation inhibition assay; details: read-out: Antiproliferative activity (IC50 (nM)) Ba/F3 EGFR LR/TM/CS; Ba/F3 (EGFR-L858R/T790M/C797S) cells; 72 hours; CTG
PC9 = experiment: CellTiter-Glo cell proliferation inhibition assay; details: read-out: Antiproliferative activity (IC50 (nM)) PC9; PC9 cells; 72 hours; CTG
NCI-H1975 = experiment: CellTiter-Glo cell proliferation inhibition assay; details: read-out: Antiproliferative activity (IC50 (nM)) NCI-H1975; NCI-H1975 cells; 72 hours; CTG
Ba/F3 EGFR wt+EGF = experiment: CellTiter-Glo cell proliferation inhibition assay; details: read-out: Antiproliferative activity (IC50 (nM)) Ba/F3 EGFR wt+EGF; Ba/F3 EGFR wt cells with EGF stimulation; 72 hours; CTG
P-gp = P-gp (Homo sapiens, UniProt P08183); experiment: P-gp substrate evaluation assay (MDCKII-MDR1 Transwell permeability); details: MDCKII-MDR1 cells; Papp basolateral to apical / apical to basolateral; 2 hours; pH 7.4
[2] = Cassette pharmacokinetic study in mice; details: ICR mice; PO; cassette dosing; 15 mg/kg

The chains behind the UniProt entries cited, without tags or fusion partners.
UniProt P08183, whole entry: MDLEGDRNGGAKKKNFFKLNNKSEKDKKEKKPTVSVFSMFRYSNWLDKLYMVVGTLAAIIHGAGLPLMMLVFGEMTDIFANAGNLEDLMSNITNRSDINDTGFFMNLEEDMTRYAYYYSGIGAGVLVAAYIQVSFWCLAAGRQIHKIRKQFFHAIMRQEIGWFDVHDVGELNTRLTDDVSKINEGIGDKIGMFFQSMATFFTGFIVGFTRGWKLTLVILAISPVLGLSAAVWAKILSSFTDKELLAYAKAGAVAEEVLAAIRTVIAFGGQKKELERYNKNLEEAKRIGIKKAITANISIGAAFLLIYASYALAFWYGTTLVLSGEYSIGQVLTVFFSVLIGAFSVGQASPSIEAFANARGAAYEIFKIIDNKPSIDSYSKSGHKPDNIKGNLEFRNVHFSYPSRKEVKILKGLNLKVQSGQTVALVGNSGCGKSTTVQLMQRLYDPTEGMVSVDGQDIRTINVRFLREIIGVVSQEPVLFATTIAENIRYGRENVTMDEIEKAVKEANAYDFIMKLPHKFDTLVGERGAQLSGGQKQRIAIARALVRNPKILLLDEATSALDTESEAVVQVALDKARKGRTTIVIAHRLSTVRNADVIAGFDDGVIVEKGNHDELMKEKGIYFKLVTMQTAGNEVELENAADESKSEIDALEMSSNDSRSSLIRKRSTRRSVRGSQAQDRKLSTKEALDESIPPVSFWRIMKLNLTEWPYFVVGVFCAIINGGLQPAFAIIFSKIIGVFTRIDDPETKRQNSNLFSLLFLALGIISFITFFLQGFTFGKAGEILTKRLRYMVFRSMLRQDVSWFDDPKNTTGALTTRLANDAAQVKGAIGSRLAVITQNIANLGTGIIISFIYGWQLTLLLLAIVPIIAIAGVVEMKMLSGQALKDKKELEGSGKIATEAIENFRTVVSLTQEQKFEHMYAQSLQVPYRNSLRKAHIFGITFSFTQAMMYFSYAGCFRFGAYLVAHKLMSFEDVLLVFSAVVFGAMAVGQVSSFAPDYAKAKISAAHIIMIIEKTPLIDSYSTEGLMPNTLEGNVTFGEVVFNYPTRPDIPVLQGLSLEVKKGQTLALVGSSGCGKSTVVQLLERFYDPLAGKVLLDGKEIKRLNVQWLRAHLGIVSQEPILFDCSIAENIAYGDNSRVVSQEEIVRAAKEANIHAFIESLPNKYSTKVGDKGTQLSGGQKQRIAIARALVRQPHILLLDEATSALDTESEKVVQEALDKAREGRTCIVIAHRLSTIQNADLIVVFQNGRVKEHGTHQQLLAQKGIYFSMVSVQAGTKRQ

Work on CC1CCOc2c(cnn2C)-c2nccc(n2)Nc2cc3c1ccc(N1C[C@H](N(C)S(C)(=O)=O)[C@H]1C)c3cn2 (stereo partly shown) yielded an IC50 (A431) of 196 nM, an IC50 (Ba/F3 (EGFR-L858R/C797S)) of 0.5 nM and an IC50 [1] of 1.7 nM. It also gave an IC50 (PC9) of 0.7 nM, an IC50 (NCI-H1975) of 1.5 nM and an IC50 (Ba/F3 EGFR wt+EGF) of 20 nM. The ER (Efflux Ratio) (P-gp) was 0.4, the “Area Under the Curve AUC0-24h” value [2] was 10199 ng·h/mL and the “Half-life T1/2” value [2] was 4.0 h. The “Maximum Concentration Cmax” value [2] was 1413 ng/mL.

— patent publication EP4843990A1, “AMINO HETEROARYL MACROCYCLIC COMPOUNDS AS WELL AS PREPARATION METHOD THEREFOR AND USE THEREOF” (dated 2026)
